From publication PMC2681475
No constants are given. Whether binding was seen depends on the method and setting. In cells and extracts the contact can be indirect. Some results given as binding are weak or reduced against the parent protein; the word gives no strength.

Amino acid sequences for entries named in this document (tags omitted).
UniProt P04792: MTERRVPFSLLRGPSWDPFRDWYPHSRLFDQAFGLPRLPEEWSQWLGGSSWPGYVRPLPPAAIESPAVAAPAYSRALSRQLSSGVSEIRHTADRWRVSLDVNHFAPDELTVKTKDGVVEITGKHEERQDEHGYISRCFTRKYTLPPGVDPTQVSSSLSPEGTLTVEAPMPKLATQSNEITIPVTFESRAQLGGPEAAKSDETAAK
UniProt P25963: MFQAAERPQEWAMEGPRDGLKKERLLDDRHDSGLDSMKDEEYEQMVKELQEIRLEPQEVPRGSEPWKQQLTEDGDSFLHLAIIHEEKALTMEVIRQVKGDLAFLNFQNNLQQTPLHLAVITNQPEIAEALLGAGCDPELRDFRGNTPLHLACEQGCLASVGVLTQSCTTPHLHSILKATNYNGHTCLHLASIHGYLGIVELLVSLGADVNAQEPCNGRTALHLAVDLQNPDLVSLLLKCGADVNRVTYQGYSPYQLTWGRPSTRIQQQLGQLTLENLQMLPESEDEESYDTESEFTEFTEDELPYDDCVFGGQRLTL

Target: Heat shock protein 27 (human (endogenous in Hep3B, MHCC97L, MHCC97H)) (UniProt P04792)
Assay: co-IP; immunoprecipitation with anti-HSP27 antibody from lysates (1 mg total protein) of Hep3B, MHCC97L and MHCC97H cells, 4°C overnight, Protein G-Sepharose; western blot; 20 mM Tris pH 7.5, 150 mM NaCl, 1% Triton X-100

In the case of IκBα (from UniProt P25963 1-317), the binding is reported as “binds”.
